# Patent publication EP0533352A2, “Gaba receptor agonists to treat bladder instability” (LYNXVALE LIMITED, priority 1991, dated 1993)
# Tests used:
# [1] = system: Rabbit urinary bladder smooth muscle strips; experiment: Nerve mediated contractions of rabbit urinary bladder muscle strips induced by electrical field stimulation; assay type: cell-based; conditions: percentage inhibition of control contraction; 10 Hz, 0.2 ms pulse width, 30V for 3 s; mean ± S.E.M.
# [2] = system: carbachol (5x10⁻⁶M) induced muscle contraction; experiment: Carbachol mediated muscle contractions of rabbit bladder muscle strips; assay type: cell-based
# Method: Male Dutch rabbits weighing 800-1000g were killed and the bladder removed and placed in ice cold Krebs' solution. Muscle strips were obtained measuring approximately 8mm in length and 2mm in diameter. They were stored for a maximum of 20 hours at 4°C in oxygenated Krebs' solution before their use. The strips were suspended in a superfusion chamber (capacity 0.2ml) of the Brading and Sibley design (1983) and superfused with Krebs' solution (NaCl 124; KCl 5; MgCl₂ 1.3; NaHCO₃ 26; CaCl₂ 0.8; KH₂PO₄ 1.4 and Glucose 10 [mM] continually gassed with 95% O₂ and 5% CO₂) at 37°C and at 1ml/min. A loading tension of 0.5g was applied and the strips were allowed to equilibrate for 1 hour. The muscle strips were then stimulated with electrical field stimulation at a constant frequency to ensure that stable reproducible contractions were obtained.
# Carbachol mediated muscle contractions were obtained by adding the concentration of carbachol (5x10⁻⁶ M) to the superfusion chamber and exposing the tissue for ten seconds. The effects of GABA and baclofen on carbachol mediated contractions were then observed by superfusing the tissue with the concentration of the drugs dissolved in Kreb's solution.
# Statistical analysis was performed using Student's "t" test. Comparisons of the dose response curves was performed by computer curve fitting using a Hill equation. […]
smiles,measurement,setting,value
"NCCCC(=O)O [GABA, gamma amino butyric acid]",maximum inhibition of muscle contraction induced by electrical field stimulation,[1],32.5 (±1.9) %
same,inhibition of carbachol induced contraction in the presence of TTX,[2],did not abolish the inhibition
same,inhibition of carbachol induced muscle contraction,"[2]; carbachol 5x10⁻⁶M, GABA: 10 strips, not in 6 strips, baclofen: 6 strips, not in 3 strips",dose dependent inhibition
